Source: PubChem BioAssay AID1259308 (NCATS, 2017)

Test: 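Knock-downs that increase output of a recombinant reporter protein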 (primary screen)
Cells: human HEK293 embryonic kidney cells stably expressing firefly luciferase (HEK-CMV-Luc2-Hygro)
Knock-down reagent: single siRNA against human genes, 0.8 pmol siRNA per well
Timing: 72 h
Read-out: 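Luciferase light (ONE-Glo) measured on one replicate plate set and viability (CellTiter-Glo) on the other, scaled to a negative control siRNA, with robust z-scores and luciferase per cell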
Direction: total luciferase, z-score and total luciferase, % of control: higher = more reporter protein produced; luciferase per cell, z-score: higher = more reporter output per viable cell; viable cells, % of control: higher = more viable cells
Call rule: 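Active when the median/MAD z-score for overall luciferase is greater than 3; a gene was taken forward for validation with new siRNAs if at least two of its three siRNAs passed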
Meaning of the calls: active = raised luciferase; inactive = no rise
The whole screen tested about 59,000 reagents; below is a random part of them. About 1,510 of them (2.6%) were called active. 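Calls use total luciferase alone and ignore viability, so some active siRNAs may act by altering cell number.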 Reagents against one gene are numbered here. No sequences are given here.

| target gene | siRNA no. | total luciferase, z-score | total luciferase, % of control | luciferase per cell, z-score | viable cells, % of control | Call |
| --- | --- | --- | --- | --- | --- | --- |
| DIRAS3 | 1 | -0.35 | 74.9 | -0.856 | 105 | inactive |
| DIRAS3 | 2 | -0.607 | 69.8 | -0.026 | 78.5 | inactive |
| DIRAS3 | 3 | 0.0967 | 83.8 | -0.271 | 101 | inactive |
| COL28A1 | 1 | -1.54 | 51.2 | -1.7 | 89.6 | inactive |
| COL28A1 | 2 | 1.29 | 108 | 1.24 | 86.8 | inactive |
| COL28A1 | 3 | -0.358 | 74.8 | -0.532 | 96.1 | inactive |
| TMEM190 | 1 | 1.29 | 108 | 0.828 | 96.7 | inactive |
| TMEM190 | 2 | 0.00523 | 82 | -0.241 | 97.6 | inactive |
| TMEM190 | 3 | -0.581 | 70.3 | -0.165 | 82.1 | inactive |
| LCK | 1 | 0.27 | 87.3 | -0.158 | 102 | inactive |
| LCK | 2 | -0.174 | 78.4 | -0.144 | 91 | inactive |
| LCK | 3 | 0.194 | 85.8 | 0.789 | 77.9 | inactive |
| RAPGEF3 | 1 | 3.9 | 159 | 3.47 | 71.4 | active |
| RAPGEF3 | 2 | 0.363 | 89.1 | -0.228 | 106 | inactive |
| RAPGEF3 | 3 | 0.0104 | 82.1 | -0.587 | 107 | inactive |
| SLC6A7 | 1 | 0.738 | 96.6 | 0.0295 | 107 | inactive |
| SLC6A7 | 2 | 0.578 | 93.4 | -0.794 | 129 | inactive |
| SLC6A7 | 3 | -0.126 | 79.4 | 0.366 | 80.6 | inactive |
| TMEM52B | 1 | -1.19 | 58.2 | 1.27 | 46.6 | inactive |
| TMEM52B | 2 | -0.422 | 73.5 | -0.486 | 93.3 | inactive |
| TMEM52B | 3 | 0.548 | 92.8 | 0.843 | 83 | inactive |
| ADGRF2P | 1 | -0.0828 | 80.2 | -0.432 | 100 | inactive |
| ADGRF2P | 2 | -0.213 | 77.6 | -0.576 | 101 | inactive |
| ADGRF2P | 3 | -0.535 | 71.2 | -0.399 | 88.4 | inactive |

Ordered by “total luciferase, % of control” (highest first): 6 of the entries above.
| target gene | siRNA no. | total luciferase, z-score | total luciferase, % of control | luciferase per cell, z-score | viable cells, % of control | Call |
| --- | --- | --- | --- | --- | --- | --- |
| RAPGEF3 | 1 | 3.9 | 159 | 3.47 | 71.4 | active |
| RAPGEF3 | 2 | 0.363 | 89.1 | -0.228 | 106 | inactive |
| LCK | 1 | 0.27 | 87.3 | -0.158 | 102 | inactive |
| LCK | 3 | 0.194 | 85.8 | 0.789 | 77.9 | inactive |
| RAPGEF3 | 3 | 0.0104 | 82.1 | -0.587 | 107 | inactive |
| LCK | 2 | -0.174 | 78.4 | -0.144 | 91 | inactive |

The results go on.
| target gene | siRNA no. | total luciferase, z-score | total luciferase, % of control | luciferase per cell, z-score | viable cells, % of control | Call |
| --- | --- | --- | --- | --- | --- | --- |
| KRT25 | 1 | -0.618 | 69.6 | 0.141 | 74.9 | inactive |
| KRT25 | 2 | -0.0864 | 80.2 | 0.598 | 76.5 | inactive |
| KRT25 | 3 | 2.4 | 130 | 1.61 | 94.7 | inactive |
| IGF1R | 1 | 0.308 | 88 | 0.249 | 92.1 | inactive |
| IGF1R | 2 | -1.02 | 61.6 | -0.253 | 73.6 | inactive |
| IGF1R | 3 | 1.16 | 105 | 1.22 | 85.1 | inactive |
| ZNF404 | 1 | 0.112 | 84.1 | -0.609 | 110 | inactive |
| ZNF404 | 2 | -0.527 | 71.4 | 0.00383 | 79.7 | inactive |
| ZNF404 | 3 | 4.14 | 164 | 3.71 | 69.2 | active |
| KIAA0825 | 1 | 2.4 | 130 | 1.94 | 86.9 | inactive |
| KIAA0825 | 2 | -2 | 42.2 | -1.11 | 63.1 | inactive |
| KIAA0825 | 3 | 1.31 | 108 | 1.81 | 74.9 | inactive |
| PAX1 | 1 | -1.58 | 50.5 | -1.25 | 78.5 | inactive |
| PAX1 | 2 | 0.224 | 86.3 | 0.639 | 81.5 | inactive |
| PAX1 | 3 | 0.687 | 95.6 | 0.402 | 96.1 | inactive |
